Values from PubChem BioAssay AID652272 (Drosophila RNAi Screening Center, 2013)

Purpose: 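Finding fly genes that regulate Hedgehog signal transduction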 (primary screen)
Cells: Drosophila clone 8 (Cl8) cells
Reagents: long dsRNA against Drosophila genes
Measurement: 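Plate reader light from a firefly reporter under a ptc promoter fragment that responds to Hedgehog, with Renilla light as transfection reference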
Scale: firefly Hh reporter signal: higher = more ptc reporter light; Renilla reference signal: higher = more Renilla control light
Rule for the call: 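Hit when the z-score averaged over two replicates is under -2 or over +3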
Calls: active = hit: reporter lowered or raised; inactive = not a hit
The deposit covers about 21,000 reagents; this is a random part of those that have a named target and a result. Over the whole deposit, 503 (2.4%) are marked active. 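Raw plate light values, not normalised; calls rest on replicate z-scores that were not deposited; hits include reporter decreases as well as increases.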 Reagents against one gene are numbered here. Names joined by + are all predicted targets of the reagent. No sequences are given here. Not stated in the record: the amount of reagent, the time to read-out.

The first 2 entries, ahead of the listing:
no.	gene knocked down	dsRNA no.	firefly Hh reporter signal, replicate 1	firefly Hh reporter signal, replicate 2	firefly Hh reporter signal, replicate 3	Renilla reference signal, replicate 1	Renilla reference signal, replicate 2	Outcome
1	CG11951	1	85691	90768		2409	2685	inactive
2	CG8157	1	1.31e5	93792		2506	7576	inactive

The listing, from the first entry:
no.	gene knocked down	dsRNA no.	firefly Hh reporter signal, replicate 1	firefly Hh reporter signal, replicate 2	firefly Hh reporter signal, replicate 3	Renilla reference signal, replicate 1	Renilla reference signal, replicate 2	Outcome
1	CG11951	1	85691	90768		2409	2685	inactive
2	CG8157	1	1.31e5	93792		2506	7576	inactive
3	CG1773	1	72394	71201		3852	3490	inactive
4	CG32354	1	68468	52544		3346	2298	inactive
5	CG32354	2	84695	5.96e5	88640	7356	2650	inactive
6	CG9932	1	85953	43194		2555	4551	inactive
7	CG14442	1	62146	38922		1881	920	inactive
8	Naa40	1	1.00e5	1.01e5		3451	2724	inactive
9	Myo10A	1	29484	1.02e5		1274	4674	inactive
10	Myo10A	2	69920	2.00e5		1344	8233	inactive
11	Myo10A	3	72144	1.83e5		1485	6198	inactive
12	CG31816	1	1.15e5	2.70e5		2976	11489	inactive
13	CG42374 + Mettl5	1	1.51e5	79181		6258	3136	inactive
14	beag	1	1.57e5	1.26e5		6089	4155	inactive
15	CG14354	1	87290	4.66e5		3897	27808	inactive
16	alpha-Est8	1	55899	79636		1963	2789	inactive
17	RpS24	1	50161	24345		2656	4192	active
18	CG17658	1	71875	56352		1344	5099	inactive
19	ebi	1	64397	1.05e5		4205	5828	inactive
20	CG11030	1	71267	44392		2721	6096	inactive
21	Trpgamma	1	1.00e5	78039		2585	7801	inactive
22	CG11696	1	1.12e5	77857		2745	2012	inactive
23	LManIV	1	1.14e5	44256		2679	4802	inactive
